The inconclusive results got no clear call from the source; some entries with a clear call stand among them for comparison. Where the call is inconclusive, the potency comes from a doubtful curve fit. Calls of active or inactive are those of the source. The call rests on the fitted dose curve; in most records, active means well fitted inhibition curve with a large enough effect; inconclusive means small, poorly fitted or top-dose-only effect; inactive means no such curve, though single readings can be large or run the other way.
Assay: Counterscreen qHTS assay for inhibitors of N-terminal methyltransferase 1 (NTMT1): SPKRIA Counterscreen Assay
Conditions: biochemical qHTS; series mostly up to 99.2 µM; activity change, negative = inhibition: at the top concentration
Source text: Assay Submitter (PI): Rong Huang Ph.D,
Purdue University, West Lafayette, IN 47907
The N-terminal methytransferase 1 is the first methyltransferase that methylates protein alpha-N-amines and plays an important role in regulating cell mitosis, chromatin interactions and DNA repair. It is observed to be over-expressed in various cancer patient tissues like malignant melanoma and colorectal cancer tissues. Knockdown of NTMT1 in cancer cells causes cell mitotic defects and enhances sensitivity to DNA damaging chemotherapeutics. […] These critical cellular processes in which NTMT1 is implicated, coupled with emerging links to cellular dysfunction, strengthen the inference that NTMT1 is a compelling novel anticancer target. Progress have been made in understanding the molecular properties of NTMT1 and the biological consequences of protein alpha-N-terminal methylation, but there are no specific small molecule probes available for NTMT1 to fully characterize its MTase activity. To address this unmet need, a panel of assay is created and established to enable quantitative high-throughput screening (qHTS) for novel, potent, and selective small molecule NTMT1 inhibitors. Two orthogonal qHTS that use different reagents (ThioGlo vs. MTaseGlo) are developed for primary robotic screening against the NCATS chemical library of more than 400,000 small molecules. Identified inhibitors are reacquired, validated, and further characterized.
MTaseGlo Assay is a luminescence screen that measure the activity of methyltransferases based on the reaction product S-adenosyl homocysteine (SAH). The substrate SAM is converted to SAH upon enzyme activation. MTase-Glo reagent and detection solution convert SAH to ATP and measure the light from the luciferase reaction. Nicotinamide N-methyltransferase (NNMT) is a cystolic enzyme that catalyzes the transfer of a methyl group from the co-factor SAM onto the substrate, nicotinamide (NA) to form 1-methyl-nicotinamide (MNA) and SAH. NNMT MTaseGlo assay is used as a counterscreen to evaluate selectivity of identified inhibitors.
SPKRIA and Ac-RCC-10 control is provided by the Huang laboratory.
PROTOCOL TABLE; SEQUENCE No. (e.g., 1, 2, 3, etc.); […] (e.g., Cells, Incubation, Reagent, etc.); VALUE; DESCRIPTION
1; Reagent; 3 uL; dispense assay buffer.
2; Compound; 23 nL; pin compounds and control into the assay plate.
3; Time; 15 min; room temperature incubation.
4; Reagent; 1 uL; dispensed [4x] substrate or buffer.
5; Time; 30 min; incubate at room temperature.
6; Reagent; 1 uL; dispense MTase-Glo Reagent (R).
7; Time; 30 min; incubate at room temperature.
8; Reagent; 5 uL; dispense [1x] MTase-Glo Detection Solution to allow for ADP to be converted to ATP.
9; Centrifugation; 1,000 RPMs; assay plates were centrifuged.
10; Incubation; 30 min; room temperature.
11; Detection; Luminescence; ViewLux plate reader (clear filter, 10 second exposure).
NOTES (numbers refer to Sequence numbers above; values are from representative experiments)
1; Dispense the assay buffer into Greiner 1536-well black / solid bottom assay plate (Greiner Bio One, Monroe, NC).
2; Pin control inhibitor Ac-RCC1-10 at a final concentration range of 234 nM to 143 uM using a Wako Pin Tool (Wako Automation USA) equipped with a 1536-slotted pin array (Wako Automation, Richmond, VA). Pin compound library into the assay plates (columns 5 - 48) at a final concentration range of 97 nM to 250 uM.
3; Incubate the assay plates at room temperature.
4; Dispense 1 uL of substrate SPKRIA solution (final concentration 1 uM) or 1 uL buffer was added to the wells bringing the final assay volume to 4uL. The assay plate was covered with metal lids.
5; Incubate the assay plate at room temperature.
6; Dispense 1 uL of 5x MTase-Glo Reagent in the assay plate.
7; Incubate at room temperature to allow for SAH to be converted to ADP
8; Dispense 5 uL of 5x MTase-Glo Detection Solution in the assay plate to allow for ADP to be converted to ATP.
9; Assay plates were centrifuged for 15 seconds.
[…]

| Compound | Potency | activity change, negative = inhibition |
| --- | --- | --- |
| CC1CCCN(C(=O)c2cc3ccc4cccnc4c3[nH]2)C1 (stereo not given) | inconclusive: 39.8 µM [inhibitor, partial curve] |  |
| COc1cccc(C(=O)Nc2nc3c(s2)CCCC3)c1 | active: 50.1 µM |  |
| Cc1ccc(-n2ncc3c(N4CCCCC4)ncnc32)cc1 | inconclusive: 39.8 µM [inhibitor, partial curve] |  |
| Cc1nc(C)c(-c2ccc3ncnc(NCc4ncc[nH]4)c3c2)s1 | active: 44.7 µM |  |
| CCCOc1ccccc1C(=O)Nc1nc2c(s1)CCCC2 | inconclusive: 70.8 µM [inhibitor, partial curve] |  |
| O=c1[nH]cnc2nc[nH]c12 |  | inactive: -6.1% |
| c1nc(N2CCOCC2)c2cc(-c3ccc4c(c3)OCO4)ccc2n1 | inconclusive: 89.1 µM [inhibitor, partial curve] |  |
| Cc1cccc(Nc2nc(NCCO)nc(N3CCCC3)n2)c1 | inconclusive: 70.8 µM [inhibitor, partial curve, poor fit] |  |
| CCN1CCc2nc3sc(C(=O)c4ccc(F)cc4)c(N)c3cc2C1 | inconclusive: 50.1 µM [inhibitor, partial curve] |  |
| Oc1ccc(Cl)cc1Nc1nc2ccccc2n2cnnc12 |  | inactive: -9.88% |
| Cc1cccc(-c2ccc3ncnc(NCc4cccs4)c3c2)c1 | inconclusive: 20 µM [inhibitor, full curve, poor fit] |  |
| CN1CCCN=C1/C=C/c1cccs1 |  | inactive: -5.35% |
| CC(C)n1nc(-c2cc3cc(O)ccc3[nH]2)c2c(N)ncnc21 | inconclusive: 79.4 µM [inhibitor, partial curve, poor fit] |  |
| Cc1ccc2nc(Cl)c3cc(C(=O)N4CCCC(C)C4)sc3c2c1 (stereo not given) | inconclusive: 20 µM [inhibitor, full curve] |  |
| Clc1ccc(-c2nc3ccccc3s2)cc1 | inconclusive: 44.7 µM [inhibitor, partial curve] |  |
| Cc1ccc(Nc2ncnc3c2cnn3-c2ccccc2)c(C)c1 | active: 7.94 µM |  |
| COc1ccc(Nc2ncnc3sc4c(c23)CCCC4)cc1 | active: 20 µM |  |
| CC(C)=CCC/C(C)=C/CC/C(C)=C/CSc1ccccc1C(=O)O |  | inactive: -2.24% |
| CC(=O)C1CCC2C3CCC4=CC(=O)CCC4(C)C3CCC12C (stereo not given) |  | inactive: 1.56% |
| CC(NC(=O)c1sc2ncccc2c1-n1cccc1)c1ccccc1 (stereo not given) | inconclusive: 44.7 µM [inhibitor, partial curve] |  |

| Compound | Potency | activity change, negative = inhibition |
| --- | --- | --- |
| CCc1cc(C(N)=S)ccn1 |  | inactive: -17.3% |
| Nc1ccc2nc(-c3ccc(O)cc3)sc2c1 | active: 44.7 µM |  |
| Clc1ccccc1-c1nc(-c2ccncc2)no1 | inconclusive: 39.8 µM [inhibitor, partial curve] |  |
| O=C(O)c1ccc(-c2noc(-c3cccc(Cl)c3)n2)cc1 |  | inactive: -31.6% |
| COc1ccc(Cl)cc1Nc1ncnc2c1nc1n2CCCC1 | inconclusive: 25.1 µM [inhibitor, full curve] |  |
| Clc1ccc2c(c1)NC(c1ccncc1)=NC(c1cccs1)=N2 | inconclusive: 70.8 µM [inhibitor, partial curve] |  |
| Cc1ccc2nc(Cl)c3cc(C(=O)N4CCCCC4C)sc3c2c1 (stereo not given) | inconclusive: 22.4 µM [inhibitor, full curve] |  |
| COc1cc2c(cc1OC)C(c1cccc(Cl)c1)CC(=O)N2 (stereo not given) | inconclusive: 50.1 µM [inhibitor, partial curve] |  |
| c1cncc(-c2ccc3ncnc(NCc4cccs4)c3c2)c1 | active: 44.7 µM |  |
| COc1cc2ncnc(Nc3cccc(Cl)c3)c2cc1OC | active: 22.4 µM |  |
| COc1ccccc1C(=O)Nc1onc2c1CCCC2 |  | inactive: -7.37% |
| Cc1ccc(-n2ncc3c(NCCO)ncnc32)cc1Cl | active: 31.6 µM |  |
| CC(C)CCNc1ncnc2c1cnn2-c1cccc(Cl)c1 | active: 22.4 µM |  |
| CN(C)CCNc1ncnc2ccc(-c3ccc4c(c3)OCO4)cc12 | inconclusive: 56.2 µM [inhibitor, partial curve] |  |
| CC(=O)Nc1sc2c(c1-c1nc3ccccc3s1)CCN(C(C)C)C2 | inconclusive: 50.1 µM [inhibitor, partial curve] |  |
| CCCNC(=O)CSc1c(CCC)cnc2c1c(=O)n(C)c(=O)n2C |  | inactive: -10.3% |
| Cc1cccc(C(=O)Nc2sc3c(c2C(=O)O)CCCC3)c1 | active: 50.1 µM |  |
| Clc1ccc(-c2noc3ncnc(NC4CCCCC4)c23)cc1 | inconclusive: 22.4 µM [inhibitor, full curve] |  |
| COCCCNC(=O)c1cc2c(=O)n3cccc(C)c3nc2s1 | inconclusive: 44.7 µM [inhibitor, partial curve] |  |
| Cc1cccc(C(=O)Nc2nc3c(s2)CCCC3)c1 | inconclusive: 50.1 µM [inhibitor, partial curve] |  |

Taken from the listing, two compounds:

| Compound | Potency | activity change, negative = inhibition |
| --- | --- | --- |
| COc1ccccc1C(=O)Nc1onc2c1CCCC2 |  | inactive: -7.37% |
| Cc1ccc(-n2ncc3c(NCCO)ncnc32)cc1Cl | active: 31.6 µM |  |
